Measurements as given in PMC9283456.
Results are given in words; binding and its absence hold for the method and conditions named. Binding seen in cells or lysates may run through a third protein. Some entries that bind do so weakly or less than the wild type.

The chains behind the UniProt entries cited, without tags or fusion partners. Where a name states a change or a piece, a line headed by the entry shows the natural chain unless it says otherwise.
UniProt P05556: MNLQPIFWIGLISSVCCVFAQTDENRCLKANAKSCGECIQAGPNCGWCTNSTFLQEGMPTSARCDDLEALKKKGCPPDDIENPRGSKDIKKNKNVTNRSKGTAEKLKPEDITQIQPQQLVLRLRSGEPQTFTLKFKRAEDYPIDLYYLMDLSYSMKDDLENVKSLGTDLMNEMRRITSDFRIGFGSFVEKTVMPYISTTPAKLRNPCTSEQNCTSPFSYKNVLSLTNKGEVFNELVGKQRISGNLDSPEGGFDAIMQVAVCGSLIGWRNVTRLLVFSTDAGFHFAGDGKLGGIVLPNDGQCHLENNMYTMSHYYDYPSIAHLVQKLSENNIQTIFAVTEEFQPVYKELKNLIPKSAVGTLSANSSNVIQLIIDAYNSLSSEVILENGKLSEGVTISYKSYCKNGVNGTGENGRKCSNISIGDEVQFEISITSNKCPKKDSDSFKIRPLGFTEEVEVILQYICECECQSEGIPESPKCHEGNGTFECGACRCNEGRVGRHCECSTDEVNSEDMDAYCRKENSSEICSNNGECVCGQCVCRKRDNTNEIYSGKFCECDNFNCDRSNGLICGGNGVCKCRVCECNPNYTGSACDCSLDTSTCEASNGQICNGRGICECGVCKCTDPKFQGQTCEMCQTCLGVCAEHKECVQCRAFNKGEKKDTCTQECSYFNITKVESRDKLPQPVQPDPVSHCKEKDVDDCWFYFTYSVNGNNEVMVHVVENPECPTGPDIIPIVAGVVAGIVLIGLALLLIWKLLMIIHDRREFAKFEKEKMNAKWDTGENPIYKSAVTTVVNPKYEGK

Experiments:
[1] = target: T1, Transmembrane-4 L-six family member-1 (TM4SF1), endogenous (human (endogenous in Eca109 and ESCC patient tissue)) (UniProt P30408); experiment: co-IP; endogenous TM4SF1 immunoprecipitated with anti-TM4SF1 antibody and protein-A/G PLUS beads from homogenized ESCC patient tissue lysate; 0.1% Triton TBS (20 mM Tris-HCl pH 7.4, 150 mM NaCl), 4 °C; blots for integrin α6, β4, β1
T1 sequence: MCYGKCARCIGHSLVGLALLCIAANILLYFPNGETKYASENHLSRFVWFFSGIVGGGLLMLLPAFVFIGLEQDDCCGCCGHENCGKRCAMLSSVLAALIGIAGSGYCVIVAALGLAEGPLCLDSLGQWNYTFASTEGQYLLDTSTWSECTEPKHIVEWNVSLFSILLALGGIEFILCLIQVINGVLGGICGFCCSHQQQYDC

[2] = target: T1, Transmembrane-4 L-six family member-1 (TM4SF1), endogenous (human (endogenous in Eca109 and ESCC patient tissue)); experiment: co-IP; endogenous TM4SF1 immunoprecipitated with anti-TM4SF1 antibody and protein-A/G PLUS beads from Eca109 cells cultured with or without laminin-coating; 0.1% Triton TBS (20 mM Tris-HCl pH 7.4, 150 mM NaCl), 4 °C; blots for integrin α6, β4, β1

integrin β1 (from UniProt P05556 21-798) (receptor)
binding [1]: binds
binding [2]: binds
